For 1 substance, binding results are on record in PMC10825207.

By UniProt entry, the sequences of proteins in these tests, tags left out.
UniProt O14965: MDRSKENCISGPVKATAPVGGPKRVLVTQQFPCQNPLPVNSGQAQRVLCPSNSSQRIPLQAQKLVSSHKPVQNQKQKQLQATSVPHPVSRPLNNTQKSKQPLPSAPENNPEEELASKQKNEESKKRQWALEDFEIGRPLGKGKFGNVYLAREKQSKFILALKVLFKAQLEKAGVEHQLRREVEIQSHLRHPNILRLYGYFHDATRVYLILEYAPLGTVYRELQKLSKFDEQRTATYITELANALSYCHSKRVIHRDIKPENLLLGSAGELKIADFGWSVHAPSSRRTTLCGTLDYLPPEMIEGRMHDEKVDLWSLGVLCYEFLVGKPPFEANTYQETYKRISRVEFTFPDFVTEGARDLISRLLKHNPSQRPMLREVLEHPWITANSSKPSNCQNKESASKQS
UniProt P06748: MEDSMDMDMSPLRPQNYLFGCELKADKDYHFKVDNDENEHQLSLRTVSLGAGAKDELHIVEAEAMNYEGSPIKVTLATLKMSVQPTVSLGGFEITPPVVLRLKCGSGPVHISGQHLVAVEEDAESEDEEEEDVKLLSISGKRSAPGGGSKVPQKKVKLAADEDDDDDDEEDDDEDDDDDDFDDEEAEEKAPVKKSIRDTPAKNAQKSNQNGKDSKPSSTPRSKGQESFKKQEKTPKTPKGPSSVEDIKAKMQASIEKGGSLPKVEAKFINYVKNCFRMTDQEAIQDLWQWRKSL

Results are given in words; binding and its absence hold for the method and conditions named. Binding seen in cells or lysates may run through a third protein. Here binding means that the protein was enriched with, or labelled near, the bait; the list need not be complete.

The target of the experiment is Aurora kinase A (AURKA) (human (endogenous in A673 and other ES cell lines)) (UniProt O14965). As to the kind of experiment: affinity purification with mass spectrometry; A673 lysate precipitated with anti-AURKA antibody; SDS-PAGE, silver staining, differing bands (35-40 kDa) cut for mass spectrometry; IgG as negative control.

With “nucleophosmin1 (NPM1) (from UniProt P06748 1-294)”, the binding result is “binds”.
